{"source": "PubChem BioAssay AID1671195 (Yale University, 2021)", "aim": "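Genes whose knockdown alters LDL uptake in liver cancer cells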 (primary screen)", "system": "human Huh7 hepatoma cells", "reagent": "siRNA pool against human genes, 18 nM", "duration": "about 2 to 2.5 days of knockdown, then 8 h LDL uptake", "conditions": "DiI-labelled LDL at 30 µg/ml for 8 h, in lipoprotein-deficient serum medium", "read-out": "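Fluorescent LDL signal imaged in cells, scaled to the plate median, robust z-score for each replicate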", "direction": "robust z-score: higher = more LDL uptake after knockdown", "rule for the call": "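Active when two or more replicates show a robust z-score above 2 or below -2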", "note": "The whole screen tested about 22,000 reagents; below is a part drawn at random. Of all reagents, about 1,510 (6.9%) got an active call. 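Active includes knockdowns raising or lowering LDL uptake; positive z-scores mean more uptake, negative mean less.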 Unmarked entries are inactive."}
{"gene": "C11orf71", "robust z-score, replicate 1": -0.478, "robust z-score, replicate 2": -0.432, "robust z-score, replicate 3": -0.307}
{"gene": "DEFB4A", "robust z-score, replicate 1": -1.49, "robust z-score, replicate 2": -1.07, "robust z-score, replicate 3": -2.46}
{"gene": "COX6B2", "robust z-score, replicate 1": 0.0886, "robust z-score, replicate 2": 0.193, "robust z-score, replicate 3": 0.00292}
{"gene": "SERBP1P1", "robust z-score, replicate 1": 1.12, "robust z-score, replicate 2": 0.566, "robust z-score, replicate 3": -0.0267}
{"gene": "OR52E6", "robust z-score, replicate 1": 0.587, "robust z-score, replicate 2": 1.01, "robust z-score, replicate 3": 1.11}
{"gene": "RIPK3", "robust z-score, replicate 1": -0.914, "robust z-score, replicate 2": -0.794, "robust z-score, replicate 3": -0.984}
{"gene": "MPND", "robust z-score, replicate 1": "4.92 (active)", "robust z-score, replicate 2": 3.84, "robust z-score, replicate 3": 4.25}
{"gene": "LOC400965 (retired record)", "robust z-score, replicate 1": -0.0374, "robust z-score, replicate 2": 0.142, "robust z-score, replicate 3": 0.641}
{"gene": "OR6B1", "robust z-score, replicate 1": 1.31, "robust z-score, replicate 2": 0.651, "robust z-score, replicate 3": 2.61}
{"gene": "ALDH6A1", "robust z-score, replicate 1": -0.00404, "robust z-score, replicate 2": -0.0309, "robust z-score, replicate 3": -0.633}
{"gene": "TMCC2", "robust z-score, replicate 1": 0.272, "robust z-score, replicate 2": 0.694, "robust z-score, replicate 3": 0.328}
{"gene": "PSG5", "robust z-score, replicate 1": 0.212, "robust z-score, replicate 2": 0.202, "robust z-score, replicate 3": 0.949}

No new results follow: 2 of the entries above.
{"gene": "LOC400965 (retired record)", "robust z-score, replicate 1": -0.0374, "robust z-score, replicate 2": 0.142, "robust z-score, replicate 3": 0.641}
{"gene": "OR6B1", "robust z-score, replicate 1": 1.31, "robust z-score, replicate 2": 0.651, "robust z-score, replicate 3": 2.61}
